# Some of the results follow.
# Sequences of proteins named here, by UniProt entry; tags and fusion partners are left off. A change or cut given only in a name is not applied to a line headed by its entry.
# UniProt O94855: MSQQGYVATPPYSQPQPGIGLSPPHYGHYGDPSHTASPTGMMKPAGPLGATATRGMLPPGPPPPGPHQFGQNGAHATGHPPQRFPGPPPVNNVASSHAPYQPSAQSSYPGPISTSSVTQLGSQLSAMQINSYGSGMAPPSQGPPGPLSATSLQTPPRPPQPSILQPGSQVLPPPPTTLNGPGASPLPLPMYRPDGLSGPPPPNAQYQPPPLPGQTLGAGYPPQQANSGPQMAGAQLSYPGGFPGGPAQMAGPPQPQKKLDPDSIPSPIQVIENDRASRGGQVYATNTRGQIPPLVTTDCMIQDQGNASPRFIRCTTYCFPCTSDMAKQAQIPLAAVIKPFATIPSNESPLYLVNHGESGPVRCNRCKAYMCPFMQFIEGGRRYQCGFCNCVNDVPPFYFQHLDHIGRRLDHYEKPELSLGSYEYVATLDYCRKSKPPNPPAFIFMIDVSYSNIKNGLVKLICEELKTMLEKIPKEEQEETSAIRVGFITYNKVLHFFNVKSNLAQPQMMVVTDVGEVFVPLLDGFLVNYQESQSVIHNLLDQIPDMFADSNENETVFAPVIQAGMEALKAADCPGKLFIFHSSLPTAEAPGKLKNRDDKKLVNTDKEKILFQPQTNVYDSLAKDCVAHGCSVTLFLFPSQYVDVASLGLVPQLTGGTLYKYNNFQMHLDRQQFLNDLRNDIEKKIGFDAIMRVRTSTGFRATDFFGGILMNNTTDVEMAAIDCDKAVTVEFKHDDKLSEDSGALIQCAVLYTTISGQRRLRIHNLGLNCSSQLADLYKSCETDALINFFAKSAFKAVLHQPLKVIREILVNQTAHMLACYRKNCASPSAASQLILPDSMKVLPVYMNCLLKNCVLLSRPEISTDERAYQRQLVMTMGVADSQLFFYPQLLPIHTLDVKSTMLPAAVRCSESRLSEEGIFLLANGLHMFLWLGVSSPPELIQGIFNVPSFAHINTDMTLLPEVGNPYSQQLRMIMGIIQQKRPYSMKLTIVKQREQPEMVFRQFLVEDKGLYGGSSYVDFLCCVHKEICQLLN
# UniProt Q96EE3: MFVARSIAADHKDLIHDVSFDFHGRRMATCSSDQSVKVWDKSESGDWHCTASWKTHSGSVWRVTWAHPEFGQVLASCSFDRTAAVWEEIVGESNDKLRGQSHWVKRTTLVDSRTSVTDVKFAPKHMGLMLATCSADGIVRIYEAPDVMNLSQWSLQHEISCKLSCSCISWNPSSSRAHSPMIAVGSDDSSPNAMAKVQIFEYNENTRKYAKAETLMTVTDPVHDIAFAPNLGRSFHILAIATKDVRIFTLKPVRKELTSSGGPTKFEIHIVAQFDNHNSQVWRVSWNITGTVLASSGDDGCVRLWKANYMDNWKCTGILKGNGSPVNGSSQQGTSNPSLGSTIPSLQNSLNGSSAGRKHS
# UniProt Q96KG9: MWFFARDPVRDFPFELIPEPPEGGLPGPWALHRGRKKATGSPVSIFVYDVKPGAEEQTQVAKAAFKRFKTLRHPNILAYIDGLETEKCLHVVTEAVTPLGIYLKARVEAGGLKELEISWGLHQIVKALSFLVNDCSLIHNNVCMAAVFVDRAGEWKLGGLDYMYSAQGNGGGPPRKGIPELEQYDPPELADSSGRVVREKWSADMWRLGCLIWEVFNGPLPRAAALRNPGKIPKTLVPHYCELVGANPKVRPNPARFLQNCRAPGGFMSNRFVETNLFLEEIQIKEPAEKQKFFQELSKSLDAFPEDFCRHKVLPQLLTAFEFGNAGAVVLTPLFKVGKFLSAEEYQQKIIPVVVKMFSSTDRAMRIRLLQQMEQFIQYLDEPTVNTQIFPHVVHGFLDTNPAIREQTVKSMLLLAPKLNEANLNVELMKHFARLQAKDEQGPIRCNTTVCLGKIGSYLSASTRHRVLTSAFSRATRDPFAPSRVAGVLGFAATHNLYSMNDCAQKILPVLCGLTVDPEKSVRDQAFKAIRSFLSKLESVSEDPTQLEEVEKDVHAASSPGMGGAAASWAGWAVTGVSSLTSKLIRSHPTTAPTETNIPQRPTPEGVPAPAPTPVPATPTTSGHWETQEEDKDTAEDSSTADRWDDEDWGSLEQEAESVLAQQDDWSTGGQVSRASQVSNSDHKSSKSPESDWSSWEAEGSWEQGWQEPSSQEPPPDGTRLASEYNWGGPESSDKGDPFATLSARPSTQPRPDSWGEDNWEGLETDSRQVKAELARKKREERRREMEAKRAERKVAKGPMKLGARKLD
# UniProt P31040: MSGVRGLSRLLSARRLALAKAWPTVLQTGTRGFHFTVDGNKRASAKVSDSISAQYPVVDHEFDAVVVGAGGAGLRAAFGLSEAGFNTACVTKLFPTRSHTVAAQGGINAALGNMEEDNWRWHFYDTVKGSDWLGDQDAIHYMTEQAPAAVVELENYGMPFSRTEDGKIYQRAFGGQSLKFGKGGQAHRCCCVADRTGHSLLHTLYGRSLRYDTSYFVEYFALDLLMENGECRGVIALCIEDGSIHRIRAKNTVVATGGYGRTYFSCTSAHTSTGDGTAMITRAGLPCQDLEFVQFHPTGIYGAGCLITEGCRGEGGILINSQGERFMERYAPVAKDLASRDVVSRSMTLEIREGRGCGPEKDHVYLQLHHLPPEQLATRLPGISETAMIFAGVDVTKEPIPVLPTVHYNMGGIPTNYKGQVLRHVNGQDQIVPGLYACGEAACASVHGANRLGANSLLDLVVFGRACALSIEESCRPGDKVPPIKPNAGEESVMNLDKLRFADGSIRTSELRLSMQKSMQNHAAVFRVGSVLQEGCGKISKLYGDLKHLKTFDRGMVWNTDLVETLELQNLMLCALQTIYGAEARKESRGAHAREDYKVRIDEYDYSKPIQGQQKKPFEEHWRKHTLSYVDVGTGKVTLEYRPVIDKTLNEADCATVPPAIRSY
# UniProt Q15437: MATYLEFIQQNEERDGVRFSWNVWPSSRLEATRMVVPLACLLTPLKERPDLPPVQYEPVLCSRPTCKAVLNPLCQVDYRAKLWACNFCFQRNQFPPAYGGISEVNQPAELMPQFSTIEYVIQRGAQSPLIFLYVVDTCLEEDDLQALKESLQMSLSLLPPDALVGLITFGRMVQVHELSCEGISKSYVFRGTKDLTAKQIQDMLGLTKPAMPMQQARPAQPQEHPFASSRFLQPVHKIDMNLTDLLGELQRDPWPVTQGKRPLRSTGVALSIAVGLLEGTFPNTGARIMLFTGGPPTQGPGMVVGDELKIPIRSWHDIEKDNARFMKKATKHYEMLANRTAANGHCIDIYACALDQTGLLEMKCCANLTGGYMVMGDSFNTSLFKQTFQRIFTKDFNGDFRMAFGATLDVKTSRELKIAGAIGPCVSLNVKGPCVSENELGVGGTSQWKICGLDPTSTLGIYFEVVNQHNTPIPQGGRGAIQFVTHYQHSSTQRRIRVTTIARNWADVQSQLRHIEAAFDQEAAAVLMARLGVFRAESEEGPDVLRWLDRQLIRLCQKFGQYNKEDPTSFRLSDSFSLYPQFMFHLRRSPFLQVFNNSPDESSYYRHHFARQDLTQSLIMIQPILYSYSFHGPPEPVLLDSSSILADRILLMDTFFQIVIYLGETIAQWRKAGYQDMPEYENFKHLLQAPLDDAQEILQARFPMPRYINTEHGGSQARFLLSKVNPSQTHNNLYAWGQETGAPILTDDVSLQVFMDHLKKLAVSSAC
# UniProt Q99470: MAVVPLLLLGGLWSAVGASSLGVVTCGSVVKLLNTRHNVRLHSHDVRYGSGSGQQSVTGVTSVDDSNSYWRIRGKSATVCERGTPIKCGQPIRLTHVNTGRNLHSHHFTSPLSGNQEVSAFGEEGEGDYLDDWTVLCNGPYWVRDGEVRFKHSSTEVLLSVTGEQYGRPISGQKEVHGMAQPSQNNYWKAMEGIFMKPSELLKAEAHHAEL
# UniProt Q8WU76: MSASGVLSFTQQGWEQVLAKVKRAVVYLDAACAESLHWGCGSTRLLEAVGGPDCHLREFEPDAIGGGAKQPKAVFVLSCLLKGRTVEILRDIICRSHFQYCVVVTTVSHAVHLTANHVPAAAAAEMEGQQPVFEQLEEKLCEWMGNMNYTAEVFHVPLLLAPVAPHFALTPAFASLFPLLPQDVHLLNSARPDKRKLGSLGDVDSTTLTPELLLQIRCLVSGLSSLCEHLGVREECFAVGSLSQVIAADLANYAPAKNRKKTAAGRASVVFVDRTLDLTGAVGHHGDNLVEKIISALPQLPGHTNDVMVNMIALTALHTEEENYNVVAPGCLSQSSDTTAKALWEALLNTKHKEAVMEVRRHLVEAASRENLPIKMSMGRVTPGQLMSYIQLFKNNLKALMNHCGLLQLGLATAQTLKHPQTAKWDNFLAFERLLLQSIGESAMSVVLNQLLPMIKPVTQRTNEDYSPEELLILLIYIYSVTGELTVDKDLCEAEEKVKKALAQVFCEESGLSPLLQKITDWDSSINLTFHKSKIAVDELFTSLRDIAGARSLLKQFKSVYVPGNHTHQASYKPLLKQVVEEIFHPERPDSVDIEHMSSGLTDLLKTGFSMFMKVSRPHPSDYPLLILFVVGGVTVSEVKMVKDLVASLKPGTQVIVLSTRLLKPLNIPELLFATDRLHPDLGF
# UniProt Q9Y6B6: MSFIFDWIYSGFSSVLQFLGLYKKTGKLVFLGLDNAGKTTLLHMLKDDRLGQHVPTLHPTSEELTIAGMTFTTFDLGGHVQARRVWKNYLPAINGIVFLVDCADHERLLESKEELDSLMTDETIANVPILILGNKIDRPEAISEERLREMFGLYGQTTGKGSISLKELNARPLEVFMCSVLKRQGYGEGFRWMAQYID
# UniProt P53992: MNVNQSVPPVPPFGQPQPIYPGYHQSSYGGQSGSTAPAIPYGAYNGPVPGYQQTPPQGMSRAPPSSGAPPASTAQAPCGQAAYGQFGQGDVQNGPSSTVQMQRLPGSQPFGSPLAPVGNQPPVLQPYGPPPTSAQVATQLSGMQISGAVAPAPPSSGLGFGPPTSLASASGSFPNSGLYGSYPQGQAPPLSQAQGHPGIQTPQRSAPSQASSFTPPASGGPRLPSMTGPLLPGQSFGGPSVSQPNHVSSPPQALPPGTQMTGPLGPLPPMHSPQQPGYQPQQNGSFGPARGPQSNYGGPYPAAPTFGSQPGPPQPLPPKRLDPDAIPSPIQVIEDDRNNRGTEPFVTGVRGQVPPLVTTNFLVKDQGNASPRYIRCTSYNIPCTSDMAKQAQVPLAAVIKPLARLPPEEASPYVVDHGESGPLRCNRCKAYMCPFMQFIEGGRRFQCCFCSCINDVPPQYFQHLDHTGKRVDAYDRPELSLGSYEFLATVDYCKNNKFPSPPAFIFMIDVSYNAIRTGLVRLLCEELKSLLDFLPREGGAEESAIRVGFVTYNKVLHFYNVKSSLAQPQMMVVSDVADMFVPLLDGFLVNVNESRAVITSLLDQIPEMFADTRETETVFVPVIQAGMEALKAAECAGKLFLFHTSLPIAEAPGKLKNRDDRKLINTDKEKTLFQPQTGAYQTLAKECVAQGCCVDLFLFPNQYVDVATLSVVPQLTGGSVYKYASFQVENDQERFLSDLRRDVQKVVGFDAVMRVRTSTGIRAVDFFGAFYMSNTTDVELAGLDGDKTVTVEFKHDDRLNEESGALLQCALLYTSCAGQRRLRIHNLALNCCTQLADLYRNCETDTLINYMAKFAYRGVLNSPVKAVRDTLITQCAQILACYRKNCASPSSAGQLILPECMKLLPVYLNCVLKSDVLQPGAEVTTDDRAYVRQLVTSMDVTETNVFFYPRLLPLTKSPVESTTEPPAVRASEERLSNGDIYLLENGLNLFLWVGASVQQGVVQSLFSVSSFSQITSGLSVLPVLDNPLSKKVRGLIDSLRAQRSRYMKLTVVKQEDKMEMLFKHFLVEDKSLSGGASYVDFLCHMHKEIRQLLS
# UniProt Q15436: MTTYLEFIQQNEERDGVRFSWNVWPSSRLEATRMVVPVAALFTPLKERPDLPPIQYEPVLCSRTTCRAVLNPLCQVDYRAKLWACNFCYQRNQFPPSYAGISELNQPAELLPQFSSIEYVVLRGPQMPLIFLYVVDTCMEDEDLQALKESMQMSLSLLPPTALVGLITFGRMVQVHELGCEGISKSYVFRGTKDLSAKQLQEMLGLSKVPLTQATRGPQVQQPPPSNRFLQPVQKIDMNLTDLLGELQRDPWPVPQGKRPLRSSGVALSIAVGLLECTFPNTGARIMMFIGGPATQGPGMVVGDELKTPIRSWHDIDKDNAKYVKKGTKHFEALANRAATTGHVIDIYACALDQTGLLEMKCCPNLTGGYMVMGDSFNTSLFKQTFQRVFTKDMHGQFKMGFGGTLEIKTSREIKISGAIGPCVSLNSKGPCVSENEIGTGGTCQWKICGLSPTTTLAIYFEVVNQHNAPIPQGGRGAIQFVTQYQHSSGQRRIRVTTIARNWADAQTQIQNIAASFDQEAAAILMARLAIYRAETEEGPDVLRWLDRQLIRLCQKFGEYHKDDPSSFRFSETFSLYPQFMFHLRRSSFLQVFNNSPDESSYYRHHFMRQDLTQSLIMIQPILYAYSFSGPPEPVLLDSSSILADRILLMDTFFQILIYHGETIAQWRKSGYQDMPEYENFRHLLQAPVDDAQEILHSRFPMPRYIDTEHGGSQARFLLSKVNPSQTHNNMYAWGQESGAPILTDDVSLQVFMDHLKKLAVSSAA
# Compound: Cc1cc(ccc1-c1ccccc1)C(=O)N1CCCN(CC1)C(=O)CCl [compound 10]
# Assay: probe-labelled cysteine peptide fold change vs DMSO (competition) (log2 fold change); higher = less target engagement (more negative = stronger competition)
# Conditions: THP-1, incubation time: 4 h
# 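Note: competitive profiling in live THP-1 cells: cysteine peptides tagged with an iodoacetamide desthiobiotin (IA-DTB) probe, intensity after compound treatment relative to DMSO-treated cells.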
Target,probe-labelled cysteine peptide fold change (10 µM),probe-labelled cysteine peptide fold change (50 µM)
SCAF4_O95104_420_PHQQEMEVEQPCIQEVK (UniProt O95104),-0.255,-0.103
SDF2L1_Q9HCN8_38_TGAELVTCGSVLK (UniProt Q9HCN8),-0.141,0.0695
SART3_Q15020_670_CAAVDVEPPSK (UniProt Q15020),-0.0578,-0.132
SEC24D_O94855_390_YQCGFCNCVNDVPPFYFQHLDHIGR (UniProt O94855),0.533,0.699
SEH1L_Q96EE3_133_HMGLMLATCSADGIVR (UniProt Q96EE3),0.255,0.153
SCAF8_Q9UPN6_475_TLSVCSTTLWVGQVDKK (UniProt Q9UPN6),0.0477,-0.102
SCYL1_Q96KG9_88_CLHVVTEAVTPLGIYLK (UniProt Q96KG9),0.0987,-0.0219
SATB2_Q9UPW6_195_ECPLSQSMISSIVNSTYYANVSATK (UniProt Q9UPW6),0.307,0.108
SAMM50_Q9Y512_65_DDIIICEIGDVFK (UniProt Q9Y512),0.144,0.425
SEC13_P55735_153_INNAHTIGCNAVSWAPAVVPGSLIDHPSGQK (UniProt P55735),0.205,0.559
SDHA_P31040_443_HVNGQDQIVPGLYACGEAACASVHGANR (UniProt P31040),0.059,-0.195
SEC23B_Q15437_85_LWACNFCFQR (UniProt Q15437),-0.0086,-0.244
SDHA_P31040_238_GVIALCIEDGSIHR (UniProt P31040),0.187,0.0703
SDHA_P31040_536_VGSVLQEGCGK (UniProt P31040),-0.00734,0.121
SATB1_Q01826_91_GTMLPVFCVVEHYENAIEYDCK (UniProt Q01826),0.316,0.467
SCYL1_Q96KG9_503_VAGVLGFAATHNLYSMNDCAQK (UniProt Q96KG9),-0.194,-0.333
SDF2_Q99470_80_SATVCER (UniProt Q99470),-0.188,0.221
SBF1_O95248_601_CLAQELHLHVQQNR (UniProt O95248),0.168,0.0912
SEPT2_Q15019_148_VHCCFYFISPFGHGLKPLDVAFMK (UniProt Q15019),-0.00578,0.145

# 2 entries from above, with bars between the fields:
Target | probe-labelled cysteine peptide fold change (10 µM) | probe-labelled cysteine peptide fold change (50 µM)
SEH1L_Q96EE3_133_HMGLMLATCSADGIVR (UniProt Q96EE3) | 0.255 | 0.153
SEC23B_Q15437_85_LWACNFCFQR (UniProt Q15437) | -0.0086 | -0.244

# Next results follow.

Target,probe-labelled cysteine peptide fold change (10 µM),probe-labelled cysteine peptide fold change (50 µM)
SEPT3_Q9UH03_295_TPWGIIEVENLNHCEFALLR (UniProt Q9UH03),-0.263,0.122
SEC23IP_Q9Y6Y8_467_SIIECVDDFR (UniProt Q9Y6Y8),0.143,0.282
SCFD2_Q8WU76_507_ALAQVFCEESGLSPLLQK (UniProt Q8WU76),0.126,0.0573
SCFD2_Q8WU76_218_CLVSGLSSLCEHLGVR (UniProt Q8WU76),0.209,0.26
SEC24D_O94855_1022_GLYGGSSYVDFLCCVHK (UniProt O94855),0.0448,-0.751
SEC23B_Q15437_425_IAGAIGPCVSLNVK (UniProt Q15437),0.0893,0.0455
SC5D_O75845_285_SSHSGNGCK (UniProt O75845),-0.173,-0.559
SAR1B_Q9Y6B6_178_ELNARPLEVFMCSVLK (UniProt Q9Y6B6),0.0365,-0.126
SEC23IP_Q9Y6Y8_457_GIDDNLDEIPDGEMPQVDHLVFVVHGIGPVCDLR (UniProt Q9Y6Y8),-0.0121,-0.00893
SEC24C_P53992_881_DTLITQCAQILACYR (UniProt P53992),0.0249,0.0715
SEC24C_P53992_816_LNEESGALLQCALLYTSCAGQR (UniProt P53992),-0.0652,0.248
SEC23A_Q15436_61_ERPDLPPIQYEPVLCSR (UniProt Q15436),-0.176,-0.186
SATB1_Q01826_78_GTMLPVFCVVEHYENAIEYDCKEEHAEFVLVR (UniProt Q01826),0.00518,-0.247
SAR1B_Q9Y6B6_178_PLEVFMCSVLK (UniProt Q9Y6B6),-0.0177,0.201
SAR1A_Q9NR31_178_ELNARPMEVFMCSVLK (UniProt Q9NR31),-0.0933,-0.364
SDAD1_Q9NVU7_87_DLLSCNHTVLDPDLR (UniProt Q9NVU7),0.0323,0.494
SATB1_Q01826_529_SQGWLCELLR (UniProt Q01826),-0.0884,-0.874
SASS6_Q6UVJ0_310_ENSTLDVECHEK (UniProt Q6UVJ0),0.155,0.0919
SEC23IP_Q9Y6Y8_814_IDENYSLPTCK (UniProt Q9Y6Y8),0.112,0.223

# Reference: the supplement of paper PMC12067093, “Discovery and optimisation of a covalent ligand for TRIM25 and its application to targeted protein ubiquitination” (Chemical Science, 2025)
